# Source: the supplement of paper PMC8728848
# The list shows a part of the results.
# How the values were obtained:
# Test in all cases: glycan array binding signal (z-score within array); higher = stronger binding
# Conditions in all cases: glycan notation: IUPAC condensed, linker removed
# [1] = target: Fuc(a1-2)[GalNAc(a1-3)]Gal(b1-3)GlcNAc(b1-2)Man(a1-3)[Fuc(a1-2)[GalNAc(a1-3)]Gal(b1-3)GlcNAc(b1-2)Man(a1-6)]Man(b1-4)GlcNAc(b1-4)GlcNAc
# Outline: (§1)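 From the Consortium for Functional Glycomics database, 3228 arrays were curated, keeping only those whose protein sequence was available. Binding is given as a within-array Z-score averaged across arrays sharing a protein sequence and across linkers. Negative Z-scores can be read as non-binding.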
# [2] = target: Fuc(a1-2)[GalNAc(a1-3)]Gal(b1-3)GlcNAc(b1-2)Man(a1-3)[Fuc(a1-2)[GalNAc(a1-3)]Gal(b1-3)GlcNAc(b1-2)Man(a1-6)]Man(b1-4)GlcNAc(b1-4)[Fuc(a1-6)]GlcNAc
# Outline: as §1
# [3] = target: Fuc(a1-2)[GalNAc(a1-3)]Gal(b1-3)GlcNAc(b1-3)GalNAc
# Outline: as §1
# [4] = target: Fuc(a1-2)[GalNAc(a1-3)]Gal(b1-3)GlcNAc(b1-6)GalNAc
# Outline: as §1
# [5] = target: Fuc(a1-2)[GalNAc(a1-3)]Gal(b1-4)Glc
# Outline: as §1
# [6] = target: Fuc(a1-2)[GalNAc(a1-3)]Gal(b1-4)GlcNAc
# Outline: as §1
# [7] = target: Fuc(a1-2)[GalNAc(a1-3)]Gal(b1-4)GlcNAc(b1-2)Man(a1-3)[Fuc(a1-2)[GalNAc(a1-3)]Gal(b1-4)GlcNAc(b1-2)Man(a1-6)]Man(b1-4)GlcNAc(b1-4)GlcNAc
# Outline: as §1
# [8] = target: Fuc(a1-2)[GalNAc(a1-3)]Gal(b1-4)GlcNAc(b1-2)Man(a1-3)[Fuc(a1-2)[GalNAc(a1-3)]Gal(b1-4)GlcNAc(b1-2)Man(a1-6)]Man(b1-4)GlcNAc(b1-4)[Fuc(a1-6)]GlcNAc
# Outline: as §1
# [9] = target: Fuc(a1-2)[GalNAc(a1-3)]Gal(b1-4)GlcNAc(b1-3)Gal(b1-4)GlcNAc
# Outline: as §1
# [10] = target: Fuc(a1-2)[GalNAc(a1-3)]Gal(b1-4)GlcNAc(b1-3)Gal(b1-4)GlcNAc(b1-3)Gal(b1-4)GlcNAc
# Outline: as §1
# [11] = target: Fuc(a1-2)[GalNAc(a1-3)]Gal(b1-4)GlcNAc(b1-3)GalNAc
# Outline: as §1
# [12] = target: Fuc(a1-2)[GalNAc(a1-3)]Gal(b1-4)[Fuc(a1-3)]GlcNAc
# Outline: as §1
# [13] = target: Fuc(a1-2)[GalNAc(a1-3)]Gal(b1-4)[Fuc(a1-3)]GlcNAc(b1-3)GalNAc
# Outline: as §1
# [14] = target: Fuc(a1-2)[GalNAc(a1-4)]Gal(b1-4)GlcNAc
# Outline: as §1
# [15] = target: Fuc(a1-2)[GalNAc(b1-3)]Gal
# Outline: as §1
# Fuc(a1-3)GlcNAc = target: Fuc(a1-3)GlcNAc
# Outline: as §1
# [16] = target: Fuc(a1-3)[Gal(b1-4)]Glc6S
# Outline: as §1
# [17] = target: Fuc(a1-3)[Gal(b1-4)]GlcNAc
# Outline: as §1
# [18] = target: Fuc(a1-3)[Gal(b1-4)]GlcNAc(b1-2)Man
# Outline: as §1
# [19] = target: Fuc(a1-3)[Gal(b1-4)]GlcNAc(b1-2)Man(a1-3)[Fuc(a1-3)[Gal(b1-4)]GlcNAc(b1-2)Man(a1-6)]Man(b1-4)GlcNAc(b1-4)GlcNAc
# Outline: as §1
# [20] = target: Fuc(a1-3)[Gal(b1-4)]GlcNAc(b1-2)Man(a1-3)[Fuc(a1-3)[Gal(b1-4)]GlcNAc(b1-2)Man(a1-6)]Man(b1-4)GlcNAc(b1-4)[Fuc(a1-6)]GlcNAc
# Outline: as §1
# [21] = target: Fuc(a1-3)[Gal(b1-4)]GlcNAc(b1-3)Gal(b1-3)[Fuc(a1-4)]GlcNAc
# Outline: as §1
# [22] = target: Fuc(a1-3)[Gal(b1-4)]GlcNAc(b1-3)GalNAc
# Outline: as §1
# [23] = target: Fuc(a1-3)[Gal(b1-4)]GlcNAc(b1-4)Gal(b1-4)[Fuc(a1-3)]GlcNAc
# Outline: as §1
# [24] = target: Fuc(a1-3)[Gal(b1-4)]GlcNAc(b1-4)Gal(b1-4)[Fuc(a1-3)]GlcNAc(b1-4)Gal(b1-4)[Fuc(a1-3)]GlcNAc
# Outline: as §1
# [25] = target: Fuc(a1-3)[Gal(b1-4)]GlcNAc(b1-6)GalNAc
# Outline: as §1
# [26] = target: Fuc(a1-3)[Gal(b1-4)]GlcNAc(b1-6)[Gal(b1-3)GlcNAc(b1-3)]Gal(b1-4)Glc
# Outline: as §1
# [27] = target: Fuc(a1-3)[Gal(b1-4)]GlcNAc(b1-6)[Neu5Ac(a2-3)Gal(b1-3)]GalNAc
# Outline: as §1
# [28] = target: Fuc(a1-3)[Gal(b1-4)]GlcNAc6S
# Outline: as §1
# [29] = target: Fuc(a1-3)[Gal3S(b1-4)]GlcNAc
# Outline: as §1
# [30] = target: Fuc(a1-3)[Gal3S(b1-4)]GlcNAc6S
# Outline: as §1
# [31] = target: Fuc(a1-3)[GalNAc(b1-4)]GlcNAc
# Outline: as §1
# [32] = target: Fuc(a1-3)[GalNAc(b1-4)]GlcNAc6S
# Outline: as §1
# [33] = target: Fuc(a1-3)[GalNAc3S(b1-4)]GlcNAc
# Outline: as §1
# Fuc(a1-4)GlcNAc = target: Fuc(a1-4)GlcNAc
# Outline: as §1
# Fuc(b1-3)GlcNAc = target: Fuc(b1-3)GlcNAc
# Outline: as §1
# Gal(a1-2)Gal = target: Gal(a1-2)Gal
# Outline: as §1
# Gal(a1-3)Gal = target: Gal(a1-3)Gal
# Outline: as §1
binder,measurement,setting,value
CALR truncated at D342 (Homo sapiens) (protein) EPAVYFKEQFLDGDGWTSRWIESKHKSDFGKFVLSSGKFYGDEEKDKGLQTSQDARFYALSASFEPFSNKGQTLVVQFTVKHEQNIDCGGGYVKLFPNSLDQTDMHGDSEYNIMFGPDICGPGTKKVHVIFNYKGKNVLINKDIRCKDDEFTHLYTLIVRPDNTYEVKIDNSQVESGSLEDDWDFLPPKKIKDPDASKPEDWDERAKIDDPTDSKPEDWDKPEHIPDPDAKKPEDWDEEMDGEWEPPVIQNPEYKGEWKPRQIDNPDYKGTWIHPEIDNPEYSPDPSIYAYDNFGVLGLDLWQVKSGTIFDNFLITNDEAYAEEFGNETWGVTKAAEKQMKD,glycan array binding signal (z-score),[1],-0.878
same,glycan array binding signal (z-score),[2],0.19
same,glycan array binding signal (z-score),[3],-0.928
same,glycan array binding signal (z-score),[4],-0.845
same,glycan array binding signal (z-score),[5],-0.381
same,glycan array binding signal (z-score),[6],0.349
same,glycan array binding signal (z-score),[7],0.156
same,glycan array binding signal (z-score),[8],-1.45
same,glycan array binding signal (z-score),[9],-0.728
same,glycan array binding signal (z-score),[10],-0.104
same,glycan array binding signal (z-score),[11],-1.06
same,glycan array binding signal (z-score),[12],0.29
same,glycan array binding signal (z-score),[13],1.12
same,glycan array binding signal (z-score),[14],-0.449
same,glycan array binding signal (z-score),[15],0.135
same,glycan array binding signal (z-score),Fuc(a1-3)GlcNAc,-0.849
same,glycan array binding signal (z-score),[16],-0.398
same,glycan array binding signal (z-score),[17],0.569
same,glycan array binding signal (z-score),[18],-0.828
same,glycan array binding signal (z-score),[19],0.479
same,glycan array binding signal (z-score),[20],1.53
same,glycan array binding signal (z-score),[21],-0.032
same,glycan array binding signal (z-score),[22],-0.436
same,glycan array binding signal (z-score),[23],0.193
same,glycan array binding signal (z-score),[24],-1.24
same,glycan array binding signal (z-score),[25],-0.529
same,glycan array binding signal (z-score),[26],-0.264
same,glycan array binding signal (z-score),[27],1.34
same,glycan array binding signal (z-score),[28],0.45
same,glycan array binding signal (z-score),[29],-0.195
same,glycan array binding signal (z-score),[30],-0.256
same,glycan array binding signal (z-score),[31],0.435
same,glycan array binding signal (z-score),[32],0.925
same,glycan array binding signal (z-score),[33],-0.567
same,glycan array binding signal (z-score),Fuc(a1-4)GlcNAc,0.043
same,glycan array binding signal (z-score),Fuc(b1-3)GlcNAc,-0.057
same,glycan array binding signal (z-score),Gal(a1-2)Gal,0.551
same,glycan array binding signal (z-score),Gal(a1-3)Gal,0.218

# Given bar-delimited: entries from further up.
binder | measurement | setting | value
CALR truncated at D342 (Homo sapiens) (protein) EPAVYFKEQFLDGDGWTSRWIESKHKSDFGKFVLSSGKFYGDEEKDKGLQTSQDARFYALSASFEPFSNKGQTLVVQFTVKHEQNIDCGGGYVKLFPNSLDQTDMHGDSEYNIMFGPDICGPGTKKVHVIFNYKGKNVLINKDIRCKDDEFTHLYTLIVRPDNTYEVKIDNSQVESGSLEDDWDFLPPKKIKDPDASKPEDWDERAKIDDPTDSKPEDWDKPEHIPDPDAKKPEDWDEEMDGEWEPPVIQNPEYKGEWKPRQIDNPDYKGTWIHPEIDNPEYSPDPSIYAYDNFGVLGLDLWQVKSGTIFDNFLITNDEAYAEEFGNETWGVTKAAEKQMKD | glycan array binding signal (z-score) | [4] | -0.845
same | glycan array binding signal (z-score) | [5] | -0.381
